# Some of the results follow.
# Amino acid sequences for entries named in this document (tags omitted).
# UniProt Q0JBA9, entry or part of it: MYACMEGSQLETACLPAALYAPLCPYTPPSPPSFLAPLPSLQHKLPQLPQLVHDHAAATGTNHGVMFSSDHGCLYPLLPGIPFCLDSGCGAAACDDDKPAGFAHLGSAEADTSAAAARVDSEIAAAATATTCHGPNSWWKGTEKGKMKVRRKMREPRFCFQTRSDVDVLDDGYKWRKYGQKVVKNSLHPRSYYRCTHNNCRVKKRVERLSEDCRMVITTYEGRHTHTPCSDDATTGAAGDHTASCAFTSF
# Target: OsWRKY34 (Oryza sativa, UniProt Q0JBA9 1-250)
# Test: protein-binding microarray (RPBM); PBS, 2% BSA, 51.3 ng/ul salmon testes DNA, 50 uM zinc acetate, 200 nM TF, 25 C, 1 h; high values mean tight binding
# Conditions: protein: recombinant; tags: N-terminal polyhistidine and DsRed monomer fusion (pET32a); label: CyDye5-dUTP incorporated in the synthesized complementary strand; 3' TTTTT single-stranded linker to array surface; dsDNA, one strand shown
# Method in brief: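 Using Ni–NTA, transcription factors fused N-terminally to polyhistidine and DsRed were purified after expression in E. coli BL21-CodonPlus. These were incubated at 200 nM with a blocked, double-stranded custom Agilent array for 1 h at 25 °C in a buffer containing 50 µM zinc acetate, and the array was washed. The binding signal is per-feature fluorescence intensity (arbitrary units) on an Axon 4000B scanner.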
row,Sequence,binding signal
1,CTCACCTTAATCCAGTTTTCTTTTGCCAATTTTTAGCTCACGGAGTCACCTAGTGCAG,8400 fluorescence intensity (a.u.)
2,CCCTGAGGTTCTAGTTTACATTCGAAGTTACTTCCATTTCCGGAGTCACCTAGTGCAG,8730 fluorescence intensity (a.u.)
3,CCCGCCGCGATCCGGTCGCCGCCTCCACCACCACGCCGCGCGGAGTCACCTAGTGCAG,8740 fluorescence intensity (a.u.)
4,CCGTCGCCGGTTTCTCTTCTATCCACCGCCTCTCGCCGCCCGGAGTCACCTAGTGCAG,12400 fluorescence intensity (a.u.)
5,CTCGTTTCCATTATTTATACTTGATTCTTCACTCCTTTTGCGGAGTCACCTAGTGCAG,11300 fluorescence intensity (a.u.)
6,CTTTCGATCATCCGCTTTTCTTTTTTTTATCATAATATAGCGGAGTCACCTAGTGCAG,8500 fluorescence intensity (a.u.)
7,ATATGCTTTCTGGAATTCTGGTGGCCCTAACTCCACTCCTCGGAGTCACCTAGTGCAG,10400 fluorescence intensity (a.u.)
8,CACACCTTTGCATCATTGCTGCCCTACTTTCTTCAGTAGTCGGAGTCACCTAGTGCAG,9690 fluorescence intensity (a.u.)
9,CCTCGCCCAGCTGTGCCCGTCGCCGCTCGCCACCGACCAGCGGAGTCACCTAGTGCAG,9200 fluorescence intensity (a.u.)
10,ATACACGCAATTCCGCAAATAGACACCCCAGCACACGATACGGAGTCACCTAGTGCAG,8790 fluorescence intensity (a.u.)
11,GTCTTATACTTATTGTTGCTTGTCCTACTTTATTTTATTTCGGAGTCACCTAGTGCAG,15100 fluorescence intensity (a.u.)
12,ATGGATGGGGATTCATTTGTTTGGTGAGTAGTGGTCGGGTCGGAGTCACCTAGTGCAG,9800 fluorescence intensity (a.u.)
13,CCCGTGCGTCGCCGCCGCCGACTGCTGCCGATTGACTGCTCGGAGTCACCTAGTGCAG,8320 fluorescence intensity (a.u.)
14,TCAGCATCCTCGACGCACAGGCGCAGCGTACGTCTCATGCCGGAGTCACCTAGTGCAG,8500 fluorescence intensity (a.u.)
15,AAAAAAATTGTCACTGTAGTATAGATTCACGGCGATTTGCCGGAGTCACCTAGTGCAG,8800 fluorescence intensity (a.u.)
16,TCCCACACGTTTCTCTCGCGCGGTTGCCACTTGCGATCGCCGGAGTCACCTAGTGCAG,13300 fluorescence intensity (a.u.)
17,GGATAAGCTCCATGGTCACATATTTAGCTGTTATCTTCCTCGGAGTCACCTAGTGCAG,8440 fluorescence intensity (a.u.)
18,CACATAAACTCCTAACTTTTTTTCCAAACTATCAAATTTCCGGAGTCACCTAGTGCAG,8750 fluorescence intensity (a.u.)
19,ATTATACACATTTTTTTTTCATATTTTGGAAAATACATATCGGAGTCACCTAGTGCAG,10500 fluorescence intensity (a.u.)
20,TCACACGCTACCTTCTTTTTTTTAGAGAAGGGTATTTTTTCGGAGTCACCTAGTGCAG,8610 fluorescence intensity (a.u.)
21,CACCGGCCTCCGAGGCTCCGATTCCTTCTCTTGCACACCACGGAGTCACCTAGTGCAG,8210 fluorescence intensity (a.u.)

row,Sequence,binding signal
1,GCAATTACATTTGCGGTTGGAGGAGGGGAGGCGCGGCGGACGGAGTCACCTAGTGCAG,10200 fluorescence intensity (a.u.)
2,ACTGGAACATCTACCTCACTTGCCCTGCTCCCTTCTTATACGGAGTCACCTAGTGCAG,8040 fluorescence intensity (a.u.)
3,TGCATGCTGCTTCATTATGATGTCCTGATTTGGTGTTTTACGGAGTCACCTAGTGCAG,11400 fluorescence intensity (a.u.)
4,TGTGCAGCGCTTTACTCAGCTGCTTTTCTGTTTACTTCCACGGAGTCACCTAGTGCAG,10400 fluorescence intensity (a.u.)
5,ATTCCCCACTTCCCCAACCCAGGCGATCCTCCGCCGCCGCCGGAGTCACCTAGTGCAG,8210 fluorescence intensity (a.u.)
6,CAGTAACTGTTACTGTTGCTACTATATCACTTGATATTCACGGAGTCACCTAGTGCAG,8290 fluorescence intensity (a.u.)
7,CATCACACCCATTTCCTTGCCTACTCCTCAATTAGTTAACCGGAGTCACCTAGTGCAG,8650 fluorescence intensity (a.u.)
8,CTGCACTGCTGCTCATAGTCACACTCTCTCTCTGCTTCATCGGAGTCACCTAGTGCAG,9060 fluorescence intensity (a.u.)
9,CTGGCATGTGGATGTACTTTTTTTTTTTTTTGCTTCAATCCGGAGTCACCTAGTGCAG,9880 fluorescence intensity (a.u.)
10,TGGCGTCGTTCTCTCCTCCTCCCCGCTAAACCGCCGCCGGCGGAGTCACCTAGTGCAG,8740 fluorescence intensity (a.u.)
11,AATCCAATTTGTTGTATTTTGTTGTTTTCTCATCTATTACCGGAGTCACCTAGTGCAG,10400 fluorescence intensity (a.u.)
12,CCTTCGTTTACAAAGGGTGTGTTCGGCTGCTTTTTTTTTCCGGAGTCACCTAGTGCAG,10800 fluorescence intensity (a.u.)
13,CTCTCTGTGTCTCCGCCGCCGCCGCCTCCGCCGCTCGCCGCGGAGTCACCTAGTGCAG,8060 fluorescence intensity (a.u.)
14,GCCTCGTCGTCTTCGTCTCACGCCACCATCGCCATCGCGGCGGAGTCACCTAGTGCAG,10300 fluorescence intensity (a.u.)
15,ACCTCAGGCCCACGTATTCCTGTCATCTTCCACCTCCGGACGGAGTCACCTAGTGCAG,13900 fluorescence intensity (a.u.)
16,TTAATGTATCTAAATATTTTTTCTTACTCTTCTTTCCTTTCGGAGTCACCTAGTGCAG,8430 fluorescence intensity (a.u.)
17,GCCTTCGGCTGTTGACGGCCTCTTCCTTTCACAGATCATACGGAGTCACCTAGTGCAG,9010 fluorescence intensity (a.u.)
18,TGGTTGGGGTAGTGGGCCAGAATATTTATGCTTTTCTGGACGGAGTCACCTAGTGCAG,10100 fluorescence intensity (a.u.)
19,GGGTTCATTATGCAGTAATCTCAGCTAGAATGCTTTAGGACGGAGTCACCTAGTGCAG,8540 fluorescence intensity (a.u.)
20,TGCGCTAACGTCTCCAAACGTCGTTCATCTCATTCTTACCCGGAGTCACCTAGTGCAG,9240 fluorescence intensity (a.u.)
21,ACTCCTTTTGGTCCTGCAGCTTCTGTGTTCAACATATTTTCGGAGTCACCTAGTGCAG,14000 fluorescence intensity (a.u.)

row,Sequence,binding signal
1,TCCTCTCAACTTTGGTAGTTTGTCACCTGCATATGAATATCGGAGTCACCTAGTGCAG,9870 fluorescence intensity (a.u.)
2,ATATCACAACTTGACTGCTTGTTGTCTTGTGGGAATTATTCGGAGTCACCTAGTGCAG,9770 fluorescence intensity (a.u.)
3,TTCACTGTGGCTGGCTACTCACTCCATCCTGCACATCGAGCGGAGTCACCTAGTGCAG,9080 fluorescence intensity (a.u.)
4,AAAATAATTCTCAGCCCAACAAAATACAAAGAATAATTCTCGGAGTCACCTAGTGCAG,8660 fluorescence intensity (a.u.)
5,TAGTCTTTTATTTTTTTTATCAAATTGTCACATAAGCGCCCGGAGTCACCTAGTGCAG,8390 fluorescence intensity (a.u.)
6,TTTTCATGTTTTCCGTATCAACCACTTAATCTTTATCTTTCGGAGTCACCTAGTGCAG,10100 fluorescence intensity (a.u.)
7,GCTGGTTGCATGGATCTCCGGTGGGCTTGTCGGGAAAGTACGGAGTCACCTAGTGCAG,10700 fluorescence intensity (a.u.)
8,CACGTGTTCCGCCGCCCGCACACGCGGCGTCCCGTCCAGTCGGAGTCACCTAGTGCAG,12700 fluorescence intensity (a.u.)
9,TTTGTGGACATTTCTACCCCTAGGCCCACCTGTCAGATCCCGGAGTCACCTAGTGCAG,8550 fluorescence intensity (a.u.)
10,GCCATTTGTACGTTTCTATTTTCTCAGTAATCAGACCATTCGGAGTCACCTAGTGCAG,11600 fluorescence intensity (a.u.)
11,CATTCGCCTCGCCGCCGCCCGCCTGTTTTCTCGGTCGCGTCGGAGTCACCTAGTGCAG,10500 fluorescence intensity (a.u.)
12,ACTCTCTCGGTGTGCGCGCTCTCCGCCTCCGCCTTCCAAGCGGAGTCACCTAGTGCAG,11300 fluorescence intensity (a.u.)
13,CGTTGATTTGGTTTGGGTTAGTTATGGGTTTGATTTTTTTCGGAGTCACCTAGTGCAG,20600 fluorescence intensity (a.u.)
14,CAATGGAGGGGTGTTTTTTTTTCTATTTTTCTAAATAATTCGGAGTCACCTAGTGCAG,14800 fluorescence intensity (a.u.)
15,ACTCTAACACTGTTTGATCTTCTATGATGCTCTGAACATCCGGAGTCACCTAGTGCAG,8440 fluorescence intensity (a.u.)
16,GTAGCCCTTGTCGTCATCGTCCTTTTGGATCTCAAAGTCTCGGAGTCACCTAGTGCAG,8570 fluorescence intensity (a.u.)
17,CGTTCTTATCCACTCATTCCACTGTAATGGGATTGTTTGTCGGAGTCACCTAGTGCAG,9000 fluorescence intensity (a.u.)
18,AACTTCGCAAGAGGCATGCTCTCCAGCCTCAATTTTCATGCGGAGTCACCTAGTGCAG,8410 fluorescence intensity (a.u.)
19,TTCCCAGATATATAGGTTCCGTGCTCATGGATTTTCGTTCCGGAGTCACCTAGTGCAG,8870 fluorescence intensity (a.u.)
20,TCCTCGGCTCGGCCGTGGCTGCTAGCTGCCTGCCTTTAAACGGAGTCACCTAGTGCAG,8870 fluorescence intensity (a.u.)
21,GTTCCCAAGTTGTCTGCTGCTTCCGTAACGTCAAAATTCGCGGAGTCACCTAGTGCAG,10200 fluorescence intensity (a.u.)

# Part of the list above, bar-delimited:
row | Sequence | binding signal
6 | TTTTCATGTTTTCCGTATCAACCACTTAATCTTTATCTTTCGGAGTCACCTAGTGCAG | 10100 fluorescence intensity (a.u.)
7 | GCTGGTTGCATGGATCTCCGGTGGGCTTGTCGGGAAAGTACGGAGTCACCTAGTGCAG | 10700 fluorescence intensity (a.u.)
8 | CACGTGTTCCGCCGCCCGCACACGCGGCGTCCCGTCCAGTCGGAGTCACCTAGTGCAG | 12700 fluorescence intensity (a.u.)
9 | TTTGTGGACATTTCTACCCCTAGGCCCACCTGTCAGATCCCGGAGTCACCTAGTGCAG | 8550 fluorescence intensity (a.u.)
10 | GCCATTTGTACGTTTCTATTTTCTCAGTAATCAGACCATTCGGAGTCACCTAGTGCAG | 11600 fluorescence intensity (a.u.)
11 | CATTCGCCTCGCCGCCGCCCGCCTGTTTTCTCGGTCGCGTCGGAGTCACCTAGTGCAG | 10500 fluorescence intensity (a.u.)
12 | ACTCTCTCGGTGTGCGCGCTCTCCGCCTCCGCCTTCCAAGCGGAGTCACCTAGTGCAG | 11300 fluorescence intensity (a.u.)

# Carrying on.

row,Sequence,binding signal
1,TGTGGTTGAGGGATACTCACTCCTTTCCAAATTTATCATCCGGAGTCACCTAGTGCAG,9170 fluorescence intensity (a.u.)
2,TGATCGCTCGCCGCCGCGGCCGCTCTCCCGCCGGCGCCGCCGGAGTCACCTAGTGCAG,9560 fluorescence intensity (a.u.)
3,CCAGTGCGACCTCCACTTCCGAGGCTTTCACACCGTGCGACGGAGTCACCTAGTGCAG,11400 fluorescence intensity (a.u.)
4,AACCCTGCAATGAAATTGCTGCTCCTAGTATATACTGTATCGGAGTCACCTAGTGCAG,8850 fluorescence intensity (a.u.)
5,ATGTTGCCAATCAATTCCAGCCAGGCGCACTAGCAATCTTCGGAGTCACCTAGTGCAG,8310 fluorescence intensity (a.u.)
6,TCCTAATAATGGTGTTAGGGTATCAACTGGGTTCAAGTATCGGAGTCACCTAGTGCAG,8580 fluorescence intensity (a.u.)
7,AGTGTTAGAATAGTGTTTTTCTTTTTTCAGTTGAGCTGTACGGAGTCACCTAGTGCAG,9170 fluorescence intensity (a.u.)
8,AGTTTTGTTGACTGACTTAAGGCTTTATTTCTCACTGTGGCGGAGTCACCTAGTGCAG,8750 fluorescence intensity (a.u.)
9,TGTACTTCCATGCTATTTCTATGAATTATCAGTCGTACCTCGGAGTCACCTAGTGCAG,9340 fluorescence intensity (a.u.)
10,CACCAAACCCCAACCCACCTCCAGGTCATCCACCCACATCCGGAGTCACCTAGTGCAG,8430 fluorescence intensity (a.u.)
11,CCACTGCCAAAGCTATCTGTATCGTCATTTTGCATGTTTCCGGAGTCACCTAGTGCAG,12200 fluorescence intensity (a.u.)
12,CCTTGAAGTCTAGCTGGAGTAATACCCTTGTGCAAATCCTCGGAGTCACCTAGTGCAG,8070 fluorescence intensity (a.u.)
13,CGAGCTAGAGCGTATATTCTGGTCCCGTTCATTTCTTCAACGGAGTCACCTAGTGCAG,10300 fluorescence intensity (a.u.)
14,CCCCAGCCGACTTAATGGCCCAACCGTCTTCTCTGGTTGTCGGAGTCACCTAGTGCAG,9210 fluorescence intensity (a.u.)
15,GTGGTTTGTGCACCGTGCACCCGAGCTGGTTATTATTATACGGAGTCACCTAGTGCAG,8460 fluorescence intensity (a.u.)
16,GCGGCGCCATTTTCCGTTCAGCTCACTTTTGCCTCTCTTCCGGAGTCACCTAGTGCAG,11300 fluorescence intensity (a.u.)
17,CGGCTGCCGCGACTCCACCACCTCTCCTCGCTTTGCTTGCCGGAGTCACCTAGTGCAG,8960 fluorescence intensity (a.u.)
18,ATTAACCCCGCGCGATCTCTCTATATAGGCATATACTATGCGGAGTCACCTAGTGCAG,11200 fluorescence intensity (a.u.)
19,ATCGCCCTCTTCCTTGTCTCTAGCAGCTCAGCCGCCAGAACGGAGTCACCTAGTGCAG,9000 fluorescence intensity (a.u.)
20,TATATTTTCTTCTTCGTCACGATCGATGGGATTTTTATTTCGGAGTCACCTAGTGCAG,9040 fluorescence intensity (a.u.)
21,CGGGGTGCTGGGTTTCCGGGTGAAGGCGTCTTCGTGCGAGCGGAGTCACCTAGTGCAG,9500 fluorescence intensity (a.u.)

# From paper PMC7819943, “Rice protein-binding microarrays: a tool to detect cis-acting elements near promoter regions in rice”
